# Laboratory results as given in paper PMC9507967.
# Protein sequences, listed by entry. Tags and fused reporters are not part of them. Lines headed by an entry give the natural chain unless they say otherwise; changes in a name come on top.
# UniProt Q10109: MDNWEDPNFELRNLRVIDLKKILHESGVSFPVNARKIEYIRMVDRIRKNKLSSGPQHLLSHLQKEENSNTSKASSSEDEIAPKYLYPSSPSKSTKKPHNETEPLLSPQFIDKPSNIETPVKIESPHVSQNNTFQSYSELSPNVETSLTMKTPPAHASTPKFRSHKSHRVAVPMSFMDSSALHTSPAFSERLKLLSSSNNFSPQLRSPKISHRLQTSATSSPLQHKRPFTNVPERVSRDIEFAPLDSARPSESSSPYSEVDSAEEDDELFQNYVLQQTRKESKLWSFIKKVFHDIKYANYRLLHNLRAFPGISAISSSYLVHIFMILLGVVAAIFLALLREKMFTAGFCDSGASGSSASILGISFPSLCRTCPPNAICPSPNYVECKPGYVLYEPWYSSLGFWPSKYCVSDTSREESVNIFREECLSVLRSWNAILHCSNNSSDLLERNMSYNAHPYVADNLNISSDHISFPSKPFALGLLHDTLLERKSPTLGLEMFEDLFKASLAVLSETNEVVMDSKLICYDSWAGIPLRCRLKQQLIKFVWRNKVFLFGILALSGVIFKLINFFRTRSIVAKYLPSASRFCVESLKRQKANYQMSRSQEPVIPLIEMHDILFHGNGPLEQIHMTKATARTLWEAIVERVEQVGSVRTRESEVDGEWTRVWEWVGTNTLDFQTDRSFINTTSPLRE
# UniProt Q8NC56: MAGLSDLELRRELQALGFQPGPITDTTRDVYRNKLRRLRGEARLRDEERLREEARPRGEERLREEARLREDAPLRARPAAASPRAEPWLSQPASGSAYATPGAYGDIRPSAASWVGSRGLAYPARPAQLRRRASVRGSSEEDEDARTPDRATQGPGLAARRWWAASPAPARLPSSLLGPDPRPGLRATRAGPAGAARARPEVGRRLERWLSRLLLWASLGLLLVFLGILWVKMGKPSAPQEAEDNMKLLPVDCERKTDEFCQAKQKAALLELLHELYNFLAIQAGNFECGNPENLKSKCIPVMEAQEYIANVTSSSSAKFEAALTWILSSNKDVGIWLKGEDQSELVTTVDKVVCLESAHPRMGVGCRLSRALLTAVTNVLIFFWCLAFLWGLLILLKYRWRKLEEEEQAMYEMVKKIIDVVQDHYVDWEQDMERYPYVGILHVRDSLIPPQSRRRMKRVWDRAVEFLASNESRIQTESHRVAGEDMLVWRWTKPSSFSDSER
# Results are given in words; binding and its absence hold for the method and conditions named. Binding calls can cover weak binding; strength is not graded here. Where a sequence is shown, tags or fusion partners need not be part of it.
# What was measured:
# [1] = target: MSC domain of S. pombe Lem2 (MSC-spLem2), yeast two-hybrid fusion (S. pombe) (UniProt Q10109); assay: two-hybrid; pGADT7 (Gal4 activation domain) and pGBKT7 (Gal4 DNA-binding domain) fusions co-transformed into S. cerevisiae Y2H Gold; spotting on SDC-Leu-Trp, SDC-Leu-Trp-His and SDC-Leu-Trp-His-Ade, grown for 3 days
# [2] = target: MSC domain of human LEM2 (MSC-hsLem2), yeast two-hybrid fusion (human) (UniProt Q8NC56); assay: as above
binding [1],binding [2],Binder
no binding,–,"Pab2, yeast two-hybrid fusion (protein, UniProt O14327 1-166) MSDQDALDTQEKELLEMKERVAEMEAEAAKLRAMQEQLDNETEALRNDKESIDAQSVYVGNVDYSVTPEELQSHFASCGSVNRVTILCDKFTGHPKGFAYIEFSEPSLVPNALLLNGSMLHERPLKVTPKRTNVPGMSRGRGRGRGRGRGRGRGGYRGRARGFAPY"
binds,–,"full-length S. pombe Red1 (spRed1), yeast two-hybrid fusion (protein, UniProt Q9UTR8 1-712) MSRSINLDELRKKALESKKKNEEDESNDSDKEDGEISEDDPVIDQSNSVPPMKVPTFPEQIPQLPPFDRFPGTNANFFPFGAPFMLPPALMFGPNTVPFFPQTASSNKTFSKRKRSSENSFNNRNKAKSSETSDSSNTSQSFKENRALKDTATSRPLALSSDTSYQKSEKAKSEKSPFLSTSKNSDANYSKTTNQKEAEKAVSQLFEVGVRFNDFIAEGIEPSVVHTLFLKLGLDSSSASSQGSLTLSADKAARSAKLRKIDSNLSDTHILPGDNGTPTVLPERKNLISLPLLKQDDWLSSSKPFGSSTPNVVIEFDSDDDGDDFSNSKIEQSNLEKPPSNSENGLTMSRSDYLALLRNKEEEIRRMTKLILRLESNKKPYRSPTSAADMKLPSVPVAAVDNKSKTHLDTFEKVVDLSSKADFVEAGPSISSSGASSSAATTNSDTTEQILEAPWLRKTEQIAVVHEEHPAQIKKSEIDILNNLIEKEEGELTKYQTLVKSKTEILTQLYTRKKQLLEQQGKGNVACLPKESDLSMDSITEVSAQADENSSQILSSKTSNAPNGTTETDFEDKVPLVDYISPFYRFKSYRFNQQFVERVPLKYRSLTYSNKIEPMKVFCKYETTGGVCNDDHCEASHFRDIKMTDDEIIQDLSRYIEGNDEIEKESYKSGLDIVMKNTDENTDFVDVATRIVEYHNLWKSERMTIPVAKVSI"
no binding,–,"S. pombe Rrp6 (spRrp6), yeast two-hybrid fusion (protein, UniProt Q10146 1-777) MDESELFKGLMNSTAYCSELAKVDIPFYKSIDTEFNENIKSVSSRFMRLIELLLSKVDRSRAEDIVDVEDIDNRWAEVSDTLDILFEKADYSIDKAQGLLKKPAIETHASTSDVANKKPKKEKLPYKVIHAAHLTKPQLRFRVQPNNSREFVWSWKLTEKPHSLVPLEKIIAQVKLDPSLKNSLPHPYEPEIQNSVYPPWVSEMSNPIDTGSVDETEPIWVSTESQLSDMLKELQNSKEIAVDLEHHDYRSFRGFVCLMQISNREKDWIVDTLELREELEALNVVFTNPNIIKVFHGATMDIIWLQRDFGLYVVNLFDTYYATKVLGFEGHGLAFLLQKYCDYDADKRYQMADWRIRPLPREMLKYAQSDTHYLLYIWDHLRNELISKSAERKENLMQSVFNSSKQISLRKYELEPYDPIYGLGTDGWRNVLTKFGSSKIIGREALMIYRALHDWRDSVARKEDESVRYVLPNRLLIAIAASKPVEAADVFSISKQLTPIARMYVEDIVKVVQEAEKLYNEQVDREKSQFKEVEKQNQPLAVFSESNTLGDYKVDSSVFEISKQNRSKLKTLLANGSAFWIEGQSQDDLRKARKERLFIVNQNIPFSLTLPCTQGHVESELNVKQSTVTEAANPSLNGEKKQEPIVIRDLGLNKQKRDSSKLNHKEPSNPIEERNEDIEPSEASTSVSKKRKQKKKKKNSGKLTIEAEHVSNDSPIINEAPFDYKNQKNFIADLDSDVGKNKFGKRGFNPLNKVSLPKRNTRELKKRKVSDGKSTSY"
–,binds,"hsRed1 (H. sapiens homolog of Red1 corresponding to ZFC3H1 492–1308 aa), yeast two-hybrid fusion (domain or fragment, UniProt O60293 492-1308) VGGKRRSRSKSSDPDLRRSLDKQPTDSGGGIYQYDNYEEVAMDTDSETSSPAPSPVQPPFFSECSLGYFSPAPSLSLPPPPQVSSLPPLSQPYVEGLCVSLEPLPPLPPLPPLPPEDPEQPPKPPFADEEEEEEMLLREELLKSLANKRAFKPEETSSNSDPPSPPVLNNSHPVPRSNLSIVSINTVSQPRIQNPKFHRGPRLPRTVISLPKHKSVVVTLNDSDDSESDGEASKSTNSVFGGLESMIKEARRTAEQASKPKVPPKSEKENDPLRTPEALPEEKKIEYRLLKEEIANREKQRLIKSDQLKTSSSSPANSDVEIDGIGRIAMVTKQVTDAESKLKKHRILLMKDESVLKNLVQQEAKKKESVRNAEAKITKLTEQLQATEKILNVNRMFLKKLQEQIHRVQQRVTIKKALTLKYGEELARAKAVASKEIGKRKLEQDRFGPNKMMRLDSSPVSSPRKHSAELIAMEKRRLQKLEYEYALKIQKLKEARALKAKEQQNISPVVEEEPEFSLPQPSLHDLTQDKLTLDTEENDVDDEILSGSSRERRRSFLESNYFTKPNLKHTDTANKECINKLNKNTVEKPELFLGLKIGELQKLYSKADSLKQLILKTTTGITEKVLHGQEISVDVDFVTAQSKTMEVKPCPFRPYHSPLLVFKSYRFSPYYRTKEKLPLSSVSYSNMIEPDQCFCRFDLTGTCNDDDCQWQHIQDYTLSRKQLFQDILSYNLSLIGCAETSTNEEITASAEKYVEKLFGVNKDRMSMDQMAVLLVSNINESKGHTPPFTTYKDKRKWKPKFWRKPISDNSFSSDEEQ"
